PMC10667816, “A Cell‐Penetrant Peptide Disrupting the Transcription Factor CP2c Complexes Induces Cancer‐Specific Synthetic Lethality” (Advanced Science, 2023)
No constants are given. Whether binding was seen depends on the method and setting. In cells and extracts the contact can be indirect. Some binding calls cover weakened binding; strength is not graded here. One block for each binder: values may come before it.

Key:
[1] = target: CP2c (source not told: Figures S10, S15A,B and S16J) (UniProt Q12800); assay: co-IP + pull-down; in vitro IP and pulldown assays with Pep #5 or Pep #5‐2 added, with or without probe DNA
[2] = target: T1, endogenous CP2c (human (endogenous in MDA‐MB‐231)) (UniProt Q12800); assay: cross-linking; live cells cross-linked with 2 mM DSP in PBS, 3 h on ice; nuclear and cytosolic fractions; Western blot for CP2c (DSP XL-WB); with or without Pep #5‐2C
T1 sequence: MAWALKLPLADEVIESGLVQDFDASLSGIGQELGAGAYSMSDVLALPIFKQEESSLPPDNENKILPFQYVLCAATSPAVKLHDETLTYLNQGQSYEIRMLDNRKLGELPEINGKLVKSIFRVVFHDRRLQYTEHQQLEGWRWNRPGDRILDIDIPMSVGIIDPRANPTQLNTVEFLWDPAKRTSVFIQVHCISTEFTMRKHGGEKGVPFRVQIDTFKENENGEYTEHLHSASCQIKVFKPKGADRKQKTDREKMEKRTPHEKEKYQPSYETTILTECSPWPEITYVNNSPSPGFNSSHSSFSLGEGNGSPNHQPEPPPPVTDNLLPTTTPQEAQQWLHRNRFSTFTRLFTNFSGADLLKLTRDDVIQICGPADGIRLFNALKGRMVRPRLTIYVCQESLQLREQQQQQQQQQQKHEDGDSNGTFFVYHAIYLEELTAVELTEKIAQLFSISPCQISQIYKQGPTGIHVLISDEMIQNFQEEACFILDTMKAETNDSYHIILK

[3] = target: T2, ectopically overexpressed CP2c (UniProt Q12800); assay: co-IP; ectopically overexpressed CP2c and TDP2 in 293T cells; lysis buffer 50 mM Tris‐HCl pH 7.4, 150 mM NaCl, 1 mM EDTA, 0.1% triton X‐100
T2 sequence: T1 sequence

[4] = target: T1, endogenous CP2c (human (endogenous in MDA‐MB‐231)); assay: co-IP; endogenous proteins of MDA‐MB‐231 cells, with or without ACP52C treatment; lysis buffer 50 mM Tris‐HCl pH 7.4, 150 mM NaCl, 1 mM EDTA, 0.1% triton X‐100

binding [2]: binds
B2: endogenous CP2c (protein, UniProt Q12800 1-502)
chain: T1 sequence

binding [4]: binds
B4: endogenous TDP2 (protein, UniProt O95551 1-362)
chain: MELGSCLEGGREAAEEEGEPEVKKRRLLCVEFASVASCDAAVAQCFLAENDWEMERALNSYFEPPVEESALERRPETISEPKTYVDLTNEETTDSTTSKISPSEDTQQENGSMFSLITWNIDGLDLNNLSERARGVCSYLALYSPDVIFLQEVIPPYYSYLKKRSSNYEIITGHEEGYFTAIMLKKSRVKLKSQEIIPFPSTKMMRNLLCVHVNVSGNELCLMTSHLESTRGHAAERMNQLKMVLKKMQEAPESATVIFAGDTNLRDREVTRCGGLPNNIVDVWEFLGKPKHCQYTWDTQMNSNLGITAACKLRFDRIFFRAAAEEGHIIPRSLDLLGLEKLDCGRFPSDHWGLLCNLDIIL

The next lines start with the binder.

B1: CP2c (source not told: Figures S10, S15A,B and S16J) (protein, UniProt Q12800 1-502)
chain: T1 sequence
binding [1]: binds

B3: ectopically overexpressed TDP2 (protein, UniProt O95551 1-362)
chain: B4 chain
binding [3]: binds
